The values below are quoted from earlier work in paper PMC12406256, “Food Additives Inhibit Intestinal Drug Transporters but Have Limited Effect on In Vitro Drug Permeability” (Molecular Pharmaceutics, 2025).

Chains of the proteins cited; added tags and fusions are not shown.
UniProt Q9UNQ0, whole entry: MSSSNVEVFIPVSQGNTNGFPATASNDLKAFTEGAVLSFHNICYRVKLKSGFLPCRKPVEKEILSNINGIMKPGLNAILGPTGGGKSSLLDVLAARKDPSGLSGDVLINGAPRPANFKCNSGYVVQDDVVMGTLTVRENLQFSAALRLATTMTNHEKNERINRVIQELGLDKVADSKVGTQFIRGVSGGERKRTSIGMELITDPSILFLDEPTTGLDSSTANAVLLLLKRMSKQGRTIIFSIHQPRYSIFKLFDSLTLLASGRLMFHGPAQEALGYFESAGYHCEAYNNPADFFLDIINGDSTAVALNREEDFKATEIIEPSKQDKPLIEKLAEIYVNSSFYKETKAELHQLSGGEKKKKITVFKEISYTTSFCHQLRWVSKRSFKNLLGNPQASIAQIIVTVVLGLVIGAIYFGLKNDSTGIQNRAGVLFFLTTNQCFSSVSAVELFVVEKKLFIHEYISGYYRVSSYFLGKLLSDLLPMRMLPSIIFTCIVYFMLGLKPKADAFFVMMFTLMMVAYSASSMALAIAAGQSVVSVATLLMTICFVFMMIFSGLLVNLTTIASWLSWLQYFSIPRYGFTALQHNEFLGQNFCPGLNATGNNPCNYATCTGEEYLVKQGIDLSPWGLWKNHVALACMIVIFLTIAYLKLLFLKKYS

A number of entries come with more than one value. This list holds those alone. The source may hold further records. Values given together differ for a reason that is not stated; dose, time, organism, isomer or construct need not be as stated for each record.

This data set has as its target BCRP (Homo sapiens, UniProt Q9UNQ0). Conditions: read-out: IC50 (95% CI), BCRP; previously characterized inhibitors; ref previous studies; tested form: Na salt; cited from earlier work.

Regarding `COc1cc(S(=O)(=O)[O-])c(C)cc1N=Nc1c(O)ccc2cc(S(=O)(=O)[O-])ccc12.[Na+].[Na+]` [allura red AC], the IC50 was 13.3 µM and 4.42 µM.

Consider `O=C([O-])C1=NN(c2ccc(S(=O)(=O)[O-])cc2)C(=O)C1N=Nc1ccc(S(=O)(=O)[O-])cc1.[Na+].[Na+].[Na+]` (centres unmarked) [tartrazine], for which the concentration for half-maximal inhibition (IC50) was 23.5 µM and 5.61 µM.

The IC50 is the concentration at which inhibition is half-maximal.
